Consider two molecules from PMC10517005, “A conserved membrane protein negatively regulates Mce1 complexes in mycobacteria” (Nature Communications, 2023).

Sequences of proteins named here, by UniProt entry; tags and fusion partners are left off. A change or cut given only in a name is not applied to a line headed by its entry.
UniProt A0QNR1: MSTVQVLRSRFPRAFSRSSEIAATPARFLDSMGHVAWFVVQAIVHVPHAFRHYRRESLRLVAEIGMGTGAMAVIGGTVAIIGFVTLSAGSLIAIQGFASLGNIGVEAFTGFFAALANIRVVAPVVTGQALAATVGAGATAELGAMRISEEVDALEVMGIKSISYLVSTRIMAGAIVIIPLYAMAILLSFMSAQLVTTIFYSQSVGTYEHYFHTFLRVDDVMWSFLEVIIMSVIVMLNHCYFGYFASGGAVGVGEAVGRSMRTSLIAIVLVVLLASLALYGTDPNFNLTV

No constants are given. Whether binding was seen depends on the method and setting. Binding seen in cells or lysates may run through a third protein. Binding can be weak; no strength is given. For part of these data: Tags and fused reporters may be left off the sequences shown.

Assay [1] deals with His6-YrbE1B (M. smegmatis). Nature of the assay: pull-down; His6-YrbE1A or His6-YrbE1B co-expressed in E. coli BL21(λDE3) with FLAG-tagged MceG (with or without the other YrbE1 protein) or with MSMEG_0959 alone; DDM membrane extract on TALON resin; SDS-PAGE, α-His/FLAG immunoblot (Fig. 3c, Supplementary Fig. 6a, b).
Assay [2] concerns the target His6-YrbE1B (M. smegmatis). Nature of the assay: pull-down; YrbE1A, MceG or FLAG-tagged MceG, and His6-YrbE1B (WT or GGSSG) co-expressed in E. coli BL21(λDE3) with or without FLAG-tagged MSMEG_0959 (WT or AGG3P); DDM membrane extract on TALON resin; SDS-PAGE, α-His/FLAG immunoblot (Fig. 4a, b).
Assay [3] has as its target His6-YrbE1B (M. smegmatis) (UniProt A0QNR1). Nature of the assay: pull-down.

B1: MSMEG_0959-FLAG (protein, UniProt A0QR24 1-164)
chain: MSGVPDASGAAPAGEVLFYEQGASWAWLLSGPIAGVGMAILQRTGGYGYDLWIPLIFLVLVSGFIAIQIKAARIHTSVELTRETLRQGTEIISIDEIVDIYPEASGSEVPKWQSARALGELTGVPRGRTGIGLKLTGKRVAQAWARRHRTLRAALQQLVEERTP
Turning to B1, the binding result in assay [1] and in assay [2] was “binds” each time.

B2: MSMEG_0959 (over-expressed in M. smegmatis) (protein, UniProt A0QR24 1-164)
chain: B1 chain
On to B2, for which the binding entry in assay [3] was “binds”.
